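Malaria parasite (P. falciparum) lines kept in red blood cells; parasite DNA is measured by SYBR Green fluorescence after lysis, 72 h after compound addition.
Each compound was titrated across a series from about 0.000037 to 29 µM.
The number is the fitted AC50, the concentration giving a half-maximal change in signal; a lower value means higher potency, whether the curve shows a decrease or an increase.
Calls follow the curve class and fit quality: every row here is inconclusive, covering signal-raising curves and weak, poorly fitted, partial or highest-dose-only inhibition curves.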

Values are in nM.
Every entry below has the call inconclusive.
These entries are mostly ones the record files as inconclusive; other results of the assay are not listed here.
Potencies fitted to partial, single-point or poorly fitting curves are rough.
The first word of each remark tells which way the curve ran; it can be opposite to the aim of the assay.

Result for C[C@H]1C[C@@H]2[C@H]3CCC4=CC(=O)C=C[C@@]4(C)[C@@]3(Cl)[C@@H](O)C[C@]2(C)[C@]1(OC(=O)c1ccco1)C(=O)CCl [CP211] was Potency 8087 nM (inhibitor, single point). C[C@H]1C[C@@H]2[C@H]3CCC4=CC(=O)C=C[C@@]4(C)[C@@]3(Cl)[C@@H](O)C[C@]2(C)[C@]1(OC(=O)c1ccco1)C(=O)CCl [CP247] read Potency 7080 nM (inhibitor, single point). Result for C[C@H]1C[C@@H]2[C@H]3CCC4=CC(=O)C=C[C@@]4(C)[C@@]3(Cl)[C@@H](O)C[C@]2(C)[C@]1(OC(=O)c1ccco1)C(=O)CCl [CP325] was Potency 6424 nM (inhibitor, single point). For C[C@H]1C[C@@H]2[C@H]3CCC4=CC(=O)C=C[C@@]4(C)[C@@]3(Cl)[C@@H](O)C[C@]2(C)[C@]1(OC(=O)c1ccco1)C(=O)CCl [ATS189] the result was Potency 7080 nM (inhibitor, single point). C[C@H]1C[C@@H]2[C@H]3CCC4=CC(=O)C=C[C@@]4(C)[C@@]3(Cl)[C@@H](O)C[C@]2(C)[C@]1(OC(=O)c1ccco1)C(=O)CCl [CP192] read Potency 8087 nM (inhibitor, single point).

Result for C[C@H]1C[C@@H]2[C@H]3CCC4=CC(=O)C=C[C@@]4(C)[C@@]3(Cl)[C@@H](O)C[C@]2(C)[C@]1(OC(=O)c1ccco1)C(=O)CCl [PC15] was Potency 7080 nM (inhibitor, single point). With C[C@H]1C[C@@H]2[C@H]3CCC4=CC(=O)C=C[C@@]4(C)[C@@]3(Cl)[C@@H](O)C[C@]2(C)[C@]1(OC(=O)c1ccco1)C(=O)CCl [CP286] the assay gave Potency 7943 nM (inhibitor, single point). Result for C[C@H]1C[C@@H]2[C@H]3CCC4=CC(=O)C=C[C@@]4(C)[C@@]3(Cl)[C@@H](O)C[C@]2(C)[C@]1(OC(=O)c1ccco1)C(=O)CCl [HB3] was Potency 3548 nM (inhibitor, single point). C[C@H]1C[C@@H]2[C@H]3CCC4=CC(=O)C=C[C@@]4(C)[C@@]3(Cl)[C@@H](O)C[C@]2(C)[C@]1(OC(=O)c1ccco1)C(=O)CCl [CP191] read Potency 7080 nM (inhibitor, single point). C[C@H]1C[C@@H]2[C@H]3CCC4=CC(=O)C=C[C@@]4(C)[C@@]3(Cl)[C@@H](O)C[C@]2(C)[C@]1(OC(=O)c1ccco1)C(=O)CCl [CP194] read Potency 8087 nM (inhibitor, single point).

Result for C[C@H]1C[C@@H]2[C@H]3CCC4=CC(=O)C=C[C@@]4(C)[C@@]3(Cl)[C@@H](O)C[C@]2(C)[C@]1(OC(=O)c1ccco1)C(=O)CCl [CP256] was Potency 3162 nM (inhibitor, partial curve). For C[C@H]1C[C@@H]2[C@H]3CCC4=CC(=O)C=C[C@@]4(C)[C@@]3(Cl)[C@@H](O)C[C@]2(C)[C@]1(OC(=O)c1ccco1)C(=O)CCl [CP201] the result was Potency 8087 nM (inhibitor, single point). C[C@H]1C[C@@H]2[C@H]3CCC4=CC(=O)C=C[C@@]4(C)[C@@]3(Cl)[C@@H](O)C[C@]2(C)[C@]1(OC(=O)c1ccco1)C(=O)CCl [CP262] read Potency 8087 nM (inhibitor, single point). C[C@H]1C[C@@H]2[C@H]3CCC4=CC(=O)C=C[C@@]4(C)[C@@]3(Cl)[C@@H](O)C[C@]2(C)[C@]1(OC(=O)c1ccco1)C(=O)CCl [CP291] gave Potency 5726 nM (inhibitor, single point). For C[C@H]1C[C@@H]2[C@H]3CCC4=CC(=O)C=C[C@@]4(C)[C@@]3(Cl)[C@@H](O)C[C@]2(C)[C@]1(OC(=O)c1ccco1)C(=O)CCl [CP185] the result was Potency 10000 nM (inhibitor, single point).

Result for C[C@H]1C[C@@H]2[C@H]3CCC4=CC(=O)C=C[C@@]4(C)[C@@]3(Cl)[C@@H](O)C[C@]2(C)[C@]1(OC(=O)c1ccco1)C(=O)CCl [CP266] was Potency 8087 nM (inhibitor, single point). With C[C@H]1C[C@@H]2[C@H]3CCC4=CC(=O)C=C[C@@]4(C)[C@@]3(Cl)[C@@H](O)C[C@]2(C)[C@]1(OC(=O)c1ccco1)C(=O)CCl [CP305] the assay gave Potency 7208 nM (inhibitor, single point). O=C1Oc2ccccc2C(=O)C1C(CC(O)c1ccc(-c2ccc(Br)cc2)cc1)c1ccccc1 (stereo unspecified) [DFO2036] read Potency 17782 nM (inhibitor, single point). Result for O=C1Oc2ccccc2C(=O)C1C(CC(O)c1ccc(-c2ccc(Br)cc2)cc1)c1ccccc1 (stereo unspecified) [ATS189] was Potency 17782 nM (inhibitor, single point). Result for O=C1Oc2ccccc2C(=O)C1C(CC(O)c1ccc(-c2ccc(Br)cc2)cc1)c1ccccc1 (stereo unspecified) [DIV17] was Potency 15101 nM (inhibitor, partial curve, poor fit).

With O=C1Oc2ccccc2C(=O)C1C(CC(O)c1ccc(-c2ccc(Br)cc2)cc1)c1ccccc1 (stereo unspecified) [parasite line B] the assay gave Potency 17782 nM (inhibitor, single point). With O=C1Oc2ccccc2C(=O)C1C(CC(O)c1ccc(-c2ccc(Br)cc2)cc1)c1ccccc1 (stereo unspecified) [CP335] the assay gave Potency 3.8 nM (activator). O=C1Oc2ccccc2C(=O)C1C(CC(O)c1ccc(-c2ccc(Br)cc2)cc1)c1ccccc1 (stereo unspecified) [ECU] read Potency 17782 nM (inhibitor, single point). For O=C1Oc2ccccc2C(=O)C1C(CC(O)c1ccc(-c2ccc(Br)cc2)cc1)c1ccccc1 (stereo unspecified) [P93_24] the result was Potency 17782 nM (inhibitor, single point).

Some entries from above, unchanged:

- O=C1Oc2ccccc2C(=O)C1C(CC(O)c1ccc(-c2ccc(Br)cc2)cc1)c1ccccc1 (stereo unspecified) [parasite line B] : Potency 17782 nM (inhibitor, single point)
- C[C@H]1C[C@@H]2[C@H]3CCC4=CC(=O)C=C[C@@]4(C)[C@@]3(Cl)[C@@H](O)C[C@]2(C)[C@]1(OC(=O)c1ccco1)C(=O)CCl [ATS189] : Potency 7080 nM (inhibitor, single point)

The results are deposited in PubChem (AID504749; NCATS, 2011).